Data: article PMC10901892 (Scientific Reports, 2024)

Assay: GSH adduct formation by ESI-MS
Settings: 10 μM drug, 0.2 mM GSH, 100 mM KPO4 buffer, 1 h at 37 °C

N#CC(C#N)=NNc1ccc(OC(F)(F)F)cc1 [FCCP, carbonyl cyanide p-trifluoromethoxy-phenylhydrazone, reference compound]
adduct formation with GSH: form adducts with GSH

CCCCCCCCOc1ccc(NN=C(C#N)C#N)cc1 [NMY1009, (4-octyloxy-phenyl)carbonhydrazonoyl dicyanide]
adduct formation with GSH: form adducts with GSH
